Measured values taken from publication doi:10.1101/2019.12.31.889139.
These are yes or no findings as the source states them, for the method shown. In cells and extracts the contact can be indirect. These calls come from enrichment with a bait or labelling near it, and not all partners need be listed. Where a sequence is shown, tags or fusion partners need not be part of it.

By UniProt entry, the sequences of proteins in these tests, tags left out. Residues count along the entry.
UniProt P05067, residues 18-770: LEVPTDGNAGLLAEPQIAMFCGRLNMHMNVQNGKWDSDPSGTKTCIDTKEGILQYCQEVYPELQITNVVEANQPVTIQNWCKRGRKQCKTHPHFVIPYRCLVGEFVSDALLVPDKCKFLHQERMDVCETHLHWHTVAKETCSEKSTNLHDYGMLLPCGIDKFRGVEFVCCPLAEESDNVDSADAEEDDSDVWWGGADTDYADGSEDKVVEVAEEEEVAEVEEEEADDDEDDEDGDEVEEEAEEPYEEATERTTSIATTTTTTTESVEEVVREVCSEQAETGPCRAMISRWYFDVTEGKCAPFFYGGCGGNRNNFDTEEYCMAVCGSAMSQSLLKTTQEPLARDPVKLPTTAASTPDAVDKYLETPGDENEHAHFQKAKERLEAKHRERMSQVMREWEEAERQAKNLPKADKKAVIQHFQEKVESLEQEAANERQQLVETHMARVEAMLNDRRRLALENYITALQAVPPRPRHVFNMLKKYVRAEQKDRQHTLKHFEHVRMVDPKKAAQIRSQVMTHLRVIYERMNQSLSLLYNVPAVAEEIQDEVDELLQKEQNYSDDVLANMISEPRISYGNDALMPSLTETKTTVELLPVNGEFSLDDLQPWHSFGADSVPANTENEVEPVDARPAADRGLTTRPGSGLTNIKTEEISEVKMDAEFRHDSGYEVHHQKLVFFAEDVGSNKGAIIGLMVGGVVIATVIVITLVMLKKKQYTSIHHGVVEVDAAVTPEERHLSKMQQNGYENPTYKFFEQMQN
UniProt Q14571: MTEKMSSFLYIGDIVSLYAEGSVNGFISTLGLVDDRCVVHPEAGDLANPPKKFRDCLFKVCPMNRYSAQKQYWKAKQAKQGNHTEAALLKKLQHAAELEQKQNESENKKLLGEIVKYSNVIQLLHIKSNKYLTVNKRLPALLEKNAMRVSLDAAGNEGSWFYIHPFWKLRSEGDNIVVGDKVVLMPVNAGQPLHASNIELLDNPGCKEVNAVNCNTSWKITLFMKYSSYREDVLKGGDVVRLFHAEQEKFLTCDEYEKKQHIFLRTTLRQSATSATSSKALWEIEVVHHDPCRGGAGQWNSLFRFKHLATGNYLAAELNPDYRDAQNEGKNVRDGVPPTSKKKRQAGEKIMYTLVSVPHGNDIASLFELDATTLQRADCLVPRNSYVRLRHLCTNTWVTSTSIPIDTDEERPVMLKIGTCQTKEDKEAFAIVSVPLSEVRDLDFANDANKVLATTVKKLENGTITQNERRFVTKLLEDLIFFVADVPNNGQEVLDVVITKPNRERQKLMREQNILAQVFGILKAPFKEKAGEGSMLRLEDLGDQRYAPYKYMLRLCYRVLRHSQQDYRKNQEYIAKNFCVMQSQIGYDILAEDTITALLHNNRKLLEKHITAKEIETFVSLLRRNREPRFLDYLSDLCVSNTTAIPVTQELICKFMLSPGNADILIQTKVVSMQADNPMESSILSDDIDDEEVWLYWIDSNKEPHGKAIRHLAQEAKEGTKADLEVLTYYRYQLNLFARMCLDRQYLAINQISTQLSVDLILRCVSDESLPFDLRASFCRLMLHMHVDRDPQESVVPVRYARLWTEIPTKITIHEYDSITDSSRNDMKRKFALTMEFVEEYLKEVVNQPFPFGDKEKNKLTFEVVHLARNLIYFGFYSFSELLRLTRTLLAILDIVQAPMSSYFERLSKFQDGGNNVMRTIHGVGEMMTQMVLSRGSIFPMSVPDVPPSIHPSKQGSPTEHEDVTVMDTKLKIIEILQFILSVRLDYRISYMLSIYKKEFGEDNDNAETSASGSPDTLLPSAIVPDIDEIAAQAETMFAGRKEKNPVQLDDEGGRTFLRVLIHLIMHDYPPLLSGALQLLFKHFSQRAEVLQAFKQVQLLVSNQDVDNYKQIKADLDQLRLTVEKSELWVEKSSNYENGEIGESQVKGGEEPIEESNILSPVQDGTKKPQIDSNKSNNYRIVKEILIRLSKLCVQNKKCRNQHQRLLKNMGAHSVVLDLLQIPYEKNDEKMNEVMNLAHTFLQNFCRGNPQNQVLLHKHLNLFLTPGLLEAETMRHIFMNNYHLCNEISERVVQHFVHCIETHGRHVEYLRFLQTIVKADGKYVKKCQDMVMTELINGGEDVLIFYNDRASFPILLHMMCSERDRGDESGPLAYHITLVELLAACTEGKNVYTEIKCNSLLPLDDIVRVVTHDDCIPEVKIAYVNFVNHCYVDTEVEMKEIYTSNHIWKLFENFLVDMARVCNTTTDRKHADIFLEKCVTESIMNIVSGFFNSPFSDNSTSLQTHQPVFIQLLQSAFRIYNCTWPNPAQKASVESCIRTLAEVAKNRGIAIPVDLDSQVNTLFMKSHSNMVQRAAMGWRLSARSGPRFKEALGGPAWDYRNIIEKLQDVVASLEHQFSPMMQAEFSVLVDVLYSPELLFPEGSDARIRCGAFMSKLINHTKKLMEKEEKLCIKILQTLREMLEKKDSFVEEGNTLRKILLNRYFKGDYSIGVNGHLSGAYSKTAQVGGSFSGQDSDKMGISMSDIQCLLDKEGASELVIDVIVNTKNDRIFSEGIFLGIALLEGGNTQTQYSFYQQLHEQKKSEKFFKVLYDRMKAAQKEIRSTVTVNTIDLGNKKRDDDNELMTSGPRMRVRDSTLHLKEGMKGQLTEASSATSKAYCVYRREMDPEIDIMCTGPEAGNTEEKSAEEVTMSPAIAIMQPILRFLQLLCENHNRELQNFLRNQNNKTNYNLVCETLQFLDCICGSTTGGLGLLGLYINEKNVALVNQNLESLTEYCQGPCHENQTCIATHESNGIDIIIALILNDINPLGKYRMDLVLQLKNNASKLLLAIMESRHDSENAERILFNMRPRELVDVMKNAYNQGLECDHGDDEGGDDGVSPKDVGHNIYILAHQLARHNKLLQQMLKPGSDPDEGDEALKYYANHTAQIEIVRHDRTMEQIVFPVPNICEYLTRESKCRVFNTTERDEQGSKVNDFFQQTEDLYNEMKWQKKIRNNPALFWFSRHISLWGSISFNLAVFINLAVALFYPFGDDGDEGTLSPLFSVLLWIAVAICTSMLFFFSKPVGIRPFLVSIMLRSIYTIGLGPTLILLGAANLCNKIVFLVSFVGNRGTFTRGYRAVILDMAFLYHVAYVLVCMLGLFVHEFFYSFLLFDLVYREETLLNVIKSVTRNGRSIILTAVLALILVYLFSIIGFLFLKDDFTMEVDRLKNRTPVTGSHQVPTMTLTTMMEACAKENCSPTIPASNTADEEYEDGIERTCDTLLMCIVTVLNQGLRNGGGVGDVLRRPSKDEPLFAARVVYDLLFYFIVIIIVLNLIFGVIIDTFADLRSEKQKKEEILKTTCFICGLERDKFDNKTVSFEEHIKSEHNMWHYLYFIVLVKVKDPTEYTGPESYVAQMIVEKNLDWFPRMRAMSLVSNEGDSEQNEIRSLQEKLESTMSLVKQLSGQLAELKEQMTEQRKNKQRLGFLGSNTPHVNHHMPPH
UniProt O95197: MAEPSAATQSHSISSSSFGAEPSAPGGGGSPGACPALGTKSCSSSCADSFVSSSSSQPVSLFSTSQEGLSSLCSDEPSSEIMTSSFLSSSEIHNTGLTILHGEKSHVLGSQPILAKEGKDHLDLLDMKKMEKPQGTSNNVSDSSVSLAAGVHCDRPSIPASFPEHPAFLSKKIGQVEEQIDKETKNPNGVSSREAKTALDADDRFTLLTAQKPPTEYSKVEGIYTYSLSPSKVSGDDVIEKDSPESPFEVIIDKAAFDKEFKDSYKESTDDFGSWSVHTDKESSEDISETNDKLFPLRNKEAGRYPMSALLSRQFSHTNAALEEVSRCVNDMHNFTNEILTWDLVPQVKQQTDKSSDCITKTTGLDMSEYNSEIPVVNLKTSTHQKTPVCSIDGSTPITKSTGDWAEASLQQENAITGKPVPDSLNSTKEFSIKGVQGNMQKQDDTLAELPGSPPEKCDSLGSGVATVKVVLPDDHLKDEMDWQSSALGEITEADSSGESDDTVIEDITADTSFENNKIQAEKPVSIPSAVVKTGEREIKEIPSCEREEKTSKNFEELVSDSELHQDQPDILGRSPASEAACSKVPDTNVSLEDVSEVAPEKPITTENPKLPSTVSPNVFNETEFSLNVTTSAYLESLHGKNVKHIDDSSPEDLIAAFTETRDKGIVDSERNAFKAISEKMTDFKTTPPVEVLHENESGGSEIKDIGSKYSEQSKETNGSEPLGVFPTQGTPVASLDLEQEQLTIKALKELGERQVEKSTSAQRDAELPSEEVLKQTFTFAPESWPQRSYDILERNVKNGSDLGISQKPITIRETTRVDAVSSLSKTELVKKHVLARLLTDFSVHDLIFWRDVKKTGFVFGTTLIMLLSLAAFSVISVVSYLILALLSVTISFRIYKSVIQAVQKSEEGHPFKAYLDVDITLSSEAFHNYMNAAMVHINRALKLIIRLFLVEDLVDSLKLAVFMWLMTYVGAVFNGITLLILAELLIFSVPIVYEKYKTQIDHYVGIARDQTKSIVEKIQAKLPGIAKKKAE
UniProt P99999: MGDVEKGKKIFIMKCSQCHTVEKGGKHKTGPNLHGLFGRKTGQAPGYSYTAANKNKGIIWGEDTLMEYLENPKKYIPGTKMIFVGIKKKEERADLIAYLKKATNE
UniProt Q9NZJ5, residues 30-1116: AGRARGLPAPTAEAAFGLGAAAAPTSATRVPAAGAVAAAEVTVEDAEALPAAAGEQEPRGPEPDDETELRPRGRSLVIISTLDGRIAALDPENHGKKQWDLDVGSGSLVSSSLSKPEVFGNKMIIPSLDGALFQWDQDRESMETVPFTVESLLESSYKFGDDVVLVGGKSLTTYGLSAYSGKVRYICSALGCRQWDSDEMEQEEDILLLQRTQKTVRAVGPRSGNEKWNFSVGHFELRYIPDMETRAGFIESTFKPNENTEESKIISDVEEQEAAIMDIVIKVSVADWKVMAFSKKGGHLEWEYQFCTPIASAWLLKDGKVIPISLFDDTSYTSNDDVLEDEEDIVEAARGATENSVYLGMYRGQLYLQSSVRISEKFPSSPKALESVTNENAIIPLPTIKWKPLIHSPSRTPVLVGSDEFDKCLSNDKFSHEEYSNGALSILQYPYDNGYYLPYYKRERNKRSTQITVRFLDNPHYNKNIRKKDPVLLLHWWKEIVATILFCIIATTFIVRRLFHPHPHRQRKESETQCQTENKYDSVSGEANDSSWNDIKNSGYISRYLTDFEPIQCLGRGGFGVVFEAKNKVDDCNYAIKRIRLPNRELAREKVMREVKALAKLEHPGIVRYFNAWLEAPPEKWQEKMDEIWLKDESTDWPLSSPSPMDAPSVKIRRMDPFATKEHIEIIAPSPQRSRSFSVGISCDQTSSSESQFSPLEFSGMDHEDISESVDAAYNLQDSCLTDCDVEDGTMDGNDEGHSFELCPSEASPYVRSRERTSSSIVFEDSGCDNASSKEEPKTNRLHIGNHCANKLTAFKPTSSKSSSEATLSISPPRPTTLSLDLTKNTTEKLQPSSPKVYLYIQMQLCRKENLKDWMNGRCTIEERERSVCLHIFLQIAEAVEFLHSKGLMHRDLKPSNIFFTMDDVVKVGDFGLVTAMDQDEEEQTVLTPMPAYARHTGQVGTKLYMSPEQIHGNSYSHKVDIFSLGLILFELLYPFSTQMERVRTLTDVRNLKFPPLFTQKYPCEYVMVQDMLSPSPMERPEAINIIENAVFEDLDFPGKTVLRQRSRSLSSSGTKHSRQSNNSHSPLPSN
UniProt P18850: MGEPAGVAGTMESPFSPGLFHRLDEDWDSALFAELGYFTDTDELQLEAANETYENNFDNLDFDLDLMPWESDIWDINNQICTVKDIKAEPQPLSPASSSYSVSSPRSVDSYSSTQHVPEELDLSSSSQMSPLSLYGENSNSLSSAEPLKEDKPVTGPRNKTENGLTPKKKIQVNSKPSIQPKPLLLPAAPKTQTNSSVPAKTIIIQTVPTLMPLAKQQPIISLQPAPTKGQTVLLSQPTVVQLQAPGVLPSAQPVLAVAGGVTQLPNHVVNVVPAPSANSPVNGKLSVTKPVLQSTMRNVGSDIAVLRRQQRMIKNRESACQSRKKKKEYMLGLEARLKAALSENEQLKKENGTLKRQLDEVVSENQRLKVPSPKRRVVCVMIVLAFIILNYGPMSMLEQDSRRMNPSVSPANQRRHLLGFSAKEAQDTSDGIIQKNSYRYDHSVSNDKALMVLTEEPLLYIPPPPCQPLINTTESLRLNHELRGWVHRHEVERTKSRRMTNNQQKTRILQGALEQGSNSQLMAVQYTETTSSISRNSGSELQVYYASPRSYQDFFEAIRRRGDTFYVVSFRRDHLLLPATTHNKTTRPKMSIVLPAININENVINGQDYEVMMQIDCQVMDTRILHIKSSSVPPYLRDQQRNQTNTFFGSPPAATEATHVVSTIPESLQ

T1: METTL7B-BirA fusion protein (human) (UniProt Q6UX53)
T1 sequence: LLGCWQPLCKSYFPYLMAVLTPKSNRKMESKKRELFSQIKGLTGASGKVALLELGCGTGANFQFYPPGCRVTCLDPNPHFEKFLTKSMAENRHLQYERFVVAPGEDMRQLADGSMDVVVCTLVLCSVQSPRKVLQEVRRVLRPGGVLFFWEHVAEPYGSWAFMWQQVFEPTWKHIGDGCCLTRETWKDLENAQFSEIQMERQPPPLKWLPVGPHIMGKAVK

B1: APBB1 (protein, UniProt O00213 1-710)
chain: MSVPSSLSQSAINANSHGGPALSLPLPLHAAHNQLLNAKLQATAVGPKDLRSAMGEGGGPEPGPANAKWLKEGQNQLRRAATAHRDQNRNVTLTLAEEASQEPEMAPLGPKGLIHLYSELELSAHNAANRGLRGPGLIISTQEQGPDEGEEKAAGEAEEEEEDDDDEEEEEDLSSPPGLPEPLESVEAPPRPQALTDGPREHSKSASLLFGMRNSAASDEDSSWATLSQGSPSYGSPEDTDSFWNPNAFETDSDLPAGWMRVQDTSGTYYWHIPTGTTQWEPPGRASPSQGSSPQEESQLTWTGFAHGEGFEDGEFWKDEPSDEAPMELGLKEPEEGTLTFPAQSLSPEPLPQEEEKLPPRNTNPGIKCFAVRSLGWVEMTEEELAPGRSSVAVNNCIRQLSYHKNNLHDPMSGGWGEGKDLLLQLEDETLKLVEPQSQALLHAQPIISIRVWGVGRDSGRERDFAYVARDKLTQMLKCHVFRCEAPAKNIATSLHEICSKIMAERRNARCLVNGLSLDHSKLVDVPFQVEFPAPKNELVQKFQVYYLGNVPVAKPVGVDVINGALESVLSSSSREQWTPSHVSVAPATLTILHQQTEAVLGECRVRFLSFLAVGRDVHTFAFIMAAGPASFCCHMFWCEPNAASLSEAVQAACMLRYQKCLDARSQASTSCLPAPPAESVARRVGWTVRRGVQSLWGSLKPKRLGAHTP

Each molecule was assayed against T1, METTL7B-BirA fusion protein (human) (assay: proximity labelling).

binding, binds:
amyloid precursor protein (from UniProt P05067 18-770)
LRP1 (from UniProt Q07954)

Molecular target: T1, METTL7B-BirA fusion protein (human)
Assay: proximity labelling
Remark: another data set of the same source

binding, binds:
amyloid precursor protein (from UniProt P05067 18-770)
ITPR2 (from UniProt Q14571 1-2701)
UQCRFS1 (from UniProt P47985)
RTN3 (from UniProt O95197 1-1032)
ATP5B (from UniProt P06576 48-529)
CYCS (from UniProt P99999 1-105)
ADAM17 (from UniProt P78536)
EIF2AK3 (from UniProt Q9NZJ5 30-1116)
CDK5 (from UniProt Q00535 1-292)
ATF6 (from UniProt P18850 1-670)
LRP1 (from UniProt Q07954)
B1
